The results are deposited in PubChem (AID504749; NCATS, 2011).

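A panel of P. falciparum strains inside erythrocytes is exposed to compounds for three days, then a DNA-binding dye reports the amount of parasite DNA. Each compound was titrated across a series from about 0.000037 to 29 µM. The number is the fitted AC50, the concentration giving a half-maximal change in signal; a lower value means higher potency, whether the curve shows a decrease or an increase. Calls follow the curve class and fit quality: every row here is inconclusive, covering signal-raising curves and weak, poorly fitted, partial or highest-dose-only inhibition curves.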

Values are in µM. Every entry below has the call inconclusive. Only part of the assay is shown, chiefly results filed as inconclusive. A potency from a partial, single-point or poor curve is only a rough figure. The first word of each remark tells which way the curve ran; it can be opposite to the aim of the assay.

- NCCS(=O)(=O)O [CP291] : fitted potency 15.1 µM (activator, partial curve, poor fit)
- NCCS(=O)(=O)O [CP315] : fitted potency 0.0007 µM (activator)
- C=C1/C(=C\C=C2/CCC[C@]3(C)[C@@H]([C@H](C)/C=C/[C@@H](O)C4CC4)CC[C@@H]23)C[C@@H](O)C[C@@H]1O [P93_24] : fitted potency 11.22 µM (inhibitor, single point)
- C=C1/C(=C\C=C2/CCC[C@]3(C)[C@@H]([C@H](C)/C=C/[C@@H](O)C4CC4)CC[C@@H]23)C[C@@H](O)C[C@@H]1O [TAB165] : fitted potency 17.78 µM (inhibitor, single point)
- C=C1/C(=C\C=C2/CCC[C@]3(C)[C@@H]([C@H](C)/C=C/[C@@H](O)C4CC4)CC[C@@H]23)C[C@@H](O)C[C@@H]1O [ICS] : fitted potency 10 µM (inhibitor, single point)
- C=C1/C(=C\C=C2/CCC[C@]3(C)[C@@H]([C@H](C)/C=C/[C@@H](O)C4CC4)CC[C@@H]23)C[C@@H](O)C[C@@H]1O [CP291] : fitted potency 16.94 µM (inhibitor, single point)
- C=C1/C(=C\C=C2/CCC[C@]3(C)[C@@H]([C@H](C)/C=C/[C@@H](O)C4CC4)CC[C@@H]23)C[C@@H](O)C[C@@H]1O [CP260] : fitted potency 15.85 µM (inhibitor, single point)
- C=C1/C(=C\C=C2/CCC[C@]3(C)[C@@H]([C@H](C)/C=C/[C@@H](O)C4CC4)CC[C@@H]23)C[C@@H](O)C[C@@H]1O [W2] : fitted potency 19.01 µM (inhibitor, single point)
- C=C1/C(=C\C=C2/CCC[C@]3(C)[C@@H]([C@H](C)/C=C/[C@@H](O)C4CC4)CC[C@@H]23)C[C@@H](O)C[C@@H]1O [AS120] : fitted potency 12.59 µM (inhibitor, single point)
- C=C1/C(=C\C=C2/CCC[C@]3(C)[C@@H]([C@H](C)/C=C/[C@@H](O)C4CC4)CC[C@@H]23)C[C@@H](O)C[C@@H]1O [CP250] : fitted potency 8.912 µM (inhibitor, single point)
- C=C1/C(=C\C=C2/CCC[C@]3(C)[C@@H]([C@H](C)/C=C/[C@@H](O)C4CC4)CC[C@@H]23)C[C@@H](O)C[C@@H]1O [CP265] : fitted potency 11.22 µM (inhibitor, single point)
- C=C1/C(=C\C=C2/CCC[C@]3(C)[C@@H]([C@H](C)/C=C/[C@@H](O)C4CC4)CC[C@@H]23)C[C@@H](O)C[C@@H]1O [7G8] : fitted potency 7.08 µM (inhibitor, partial curve)
- C=C1/C(=C\C=C2/CCC[C@]3(C)[C@@H]([C@H](C)/C=C/[C@@H](O)C4CC4)CC[C@@H]23)C[C@@H](O)C[C@@H]1O [P94_40] : fitted potency 17.78 µM (inhibitor, single point)
- CC1C(=O)C(=O)C=CN1C (stereo not shown) [CP260] : fitted potency 17.78 µM (inhibitor, single point)
- CCN(C(C)=O)c1cccc(-c2ccnc3c(C#N)cnn23)c1 [CP192] : fitted potency 19.01 µM (inhibitor, partial curve, poor fit)
- CCN(C(C)=O)c1cccc(-c2ccnc3c(C#N)cnn23)c1 [DIV14] : fitted potency 0.0005 µM (inhibitor)
- CCN(C(C)=O)c1cccc(-c2ccnc3c(C#N)cnn23)c1 [CP297] : fitted potency 0.001 µM (inhibitor)
- NC(N)=NN=C(/C=C/c1ccc([N+](=O)[O-])o1)/C=C/c1ccc([N+](=O)[O-])o1 [CP217] : fitted potency 11.22 µM (inhibitor, single point)
- NC(N)=NN=C(/C=C/c1ccc([N+](=O)[O-])o1)/C=C/c1ccc([N+](=O)[O-])o1 [FAB9] : fitted potency 17.78 µM (inhibitor, single point)
- NC(N)=NN=C(/C=C/c1ccc([N+](=O)[O-])o1)/C=C/c1ccc([N+](=O)[O-])o1 [P94_40] : fitted potency 17.78 µM (inhibitor, single point)
- NC(N)=NN=C(/C=C/c1ccc([N+](=O)[O-])o1)/C=C/c1ccc([N+](=O)[O-])o1 [CP325] : fitted potency 15.1 µM (inhibitor, single point)
- NC(N)=NN=C(/C=C/c1ccc([N+](=O)[O-])o1)/C=C/c1ccc([N+](=O)[O-])o1 [CP305] : fitted potency 19.01 µM (inhibitor, single point)

The first 2 entries again:

- NCCS(=O)(=O)O [CP291] | fitted potency 15.1 µM (activator, partial curve, poor fit)
- NCCS(=O)(=O)O [CP315] | fitted potency 0.0007 µM (activator)